Experimental data: PubChem BioAssay AID1159578 (Peter MacCallum Cancer Centre, 2015)
Assay: 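Genome-wide hunt for genes controlling movement of lymphatic endothelial cells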 (primary screen). Cell system: human lymphatic endothelial cells. Reagent: siRNA pool against human genes, 40 nM. Timing: 48 h after transfection. Measured: 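Cells stained with dye and imaged after a scratch; covered wound area and nuclei counted, duplicates averaged, migration set against mock wells and turned into a robust z-score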. Scale: migration robust z-score: higher = faster migration into the scratch; migration relative to mock: higher = more scratch area covered than mock; nuclei per well: higher = more cells in the well. Active means: 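Pools averaging fewer than 3300 nuclei are never called; remaining pools count as changed when migration robust z lies outside -2 to 2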. Calls: active = migration changed; inactive = no migration change, or too few cells.
In all, the deposit lists about 18,000 reagents; shown is a random part of them. In the full data, about 1,030 (5.7%) are marked active. 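Inactive calls also include pools with fewer than 3300 nuclei, whose migration was not assessed.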 Raw values vary from plate to plate and are shown uncorrected. Entries without a mark were called inactive.

Gene	migration robust z-score	migration class with cell-count check	migration relative to mock	nuclei per well, duplicate mean
CTAGE6 (CTAGE family member 6)	0.19	migration z between -2 and 2; enough cells	0.94	4278
HAT1 (histone acetyltransferase 1)	1.03	migration z between -2 and 2; enough cells	1	6816
IL38 (interleukin 38)	1.46	migration z between -2 and 2; enough cells	1.26	4942
OMA1 (OMA1 zinc metallopeptidase)	0.52	migration z between -2 and 2; enough cells	0.9	5446
ETS2 (ETS proto-oncogene 2, transcription factor)	-0.36	migration z between -2 and 2; enough cells	0.74	4503
FASTK (Fas activated serine/threonine kinase)	-1.01	migration z between -2 and 2; enough cells	0.61	4650
GJA5 (gap junction protein alpha 5)	0.31	migration z between -2 and 2; enough cells	0.86	6412
LOC652859 (retired record)	0.8	migration z between -2 and 2; enough cells	0.96	7286
ERAP2 (endoplasmic reticulum aminopeptidase 2)	1.76	migration z between -2 and 2; enough cells	1.14	5174
KRTAP13-1 (keratin associated protein 13-1)	0.02	migration z between -2 and 2; enough cells	0.88	5277
LAMB1 (laminin subunit beta 1)	-0.87	migration z between -2 and 2; enough cells	0.67	5286
GLDN (gliomedin)	0.46	migration z between -2 and 2; enough cells	1	5267
SULT6B1 (sulfotransferase family 6B member 1)	-0.6	migration z between -2 and 2; enough cells	0.73	6128
CDK8 (cyclin dependent kinase 8)	-0.42	migration z between -2 and 2; enough cells	0.72	5131
CIMAP3 (ciliary microtubule associated protein 3)	-0.68	migration z between -2 and 2; enough cells	0.71	4670
VEZT (vezatin, adherens junctions transmembrane protein)	0.28	migration z between -2 and 2; enough cells	0.96	5508
TSHZ3 (teashirt zinc finger homeobox 3)	-1.38	migration z between -2 and 2; enough cells	0.52	5948
ADCY10 (adenylate cyclase 10)	0.52	migration z between -2 and 2; enough cells	0.9	4762
PPP1R17 (protein phosphatase 1 regulatory subunit 17)	0.19	migration z between -2 and 2; enough cells	0.94	4951
TMEM81 (transmembrane protein 81)	-0.27	migration z between -2 and 2; enough cells	0.82	6816
CNPY2 (canopy FGF signaling regulator 2)	0.89	migration z between -2 and 2; enough cells	1.12	6028
TNFAIP1 (TNF alpha induced protein 1)	0.05	migration z between -2 and 2; enough cells	0.82	4904
ATRAID (all-trans retinoic acid induced differentiation factor)	-2.46 (active)	migration z below -2; enough cells	0.25	5276
SDCBP (syndecan binding protein)	0.62	migration z between -2 and 2; enough cells	1.04	6588
TEX26 (testis expressed 26)	-0.38	migration z between -2 and 2; enough cells	0.78	5499
CEP44 (centrosomal protein 44)	3.77 (active)	migration z above 2; enough cells	1.86	7260
IDE (insulin degrading enzyme)	-0.88	migration z between -2 and 2; enough cells	0.64	6216
GET4 (guided entry of tail-anchored proteins factor 4)	0.3	migration z between -2 and 2; enough cells	0.96	6259
FKBP6 (FKBP prolyl isomerase family member 6 (inactive))	0.42	migration z between -2 and 2; enough cells	0.88	6008
TMED5 (transmembrane p24 trafficking protein 5)	0.78	migration z between -2 and 2; enough cells	1.08	3946
TOMM70 (translocase of outer mitochondrial membrane 70)	0.32	migration z between -2 and 2; enough cells	0.97	6206
IFI30 (IFI30 lysosomal thiol reductase)	0.18	migration z between -2 and 2; enough cells	0.84	5692
KCNE1	0.42	migration z between -2 and 2; enough cells	0.88	6328
EAF2 (ELL associated factor 2)	0.6	migration z between -2 and 2; enough cells	0.92	6428
REG1A (regenerating family member 1 alpha)	-1.15	migration z between -2 and 2; enough cells	0.59	5038
UBA2 (ubiquitin like modifier activating enzyme 2)	-0.26	migration z between -2 and 2; enough cells	0.76	5838
NRBF2 (nuclear receptor binding factor 2)	-0.42	migration z between -2 and 2; enough cells	0.73	6006
PGLS (6-phosphogluconolactonase)	-0.86	migration z between -2 and 2; enough cells	0.64	5524
TMEM127 (transmembrane protein 127)	0.43	migration z between -2 and 2; enough cells	1	5270
